The nature of this series: general procedure: Fmoc solid-phase peptide synthesis; H-Rink amide Protide resin (0.56 mmol/g); manual: Rink amide MBHA or 2-chlorotrityl chloride resin; Cl-TCP(Cl) ProTide r; DIC/Oxyma; DIC/HOBt; PyBOP/HOAt/DIEA. Particulars: whole synthesis, synthesis and purification, scale of the general procedure 100 umol (manual), 500 umol / 0.5 mmol (microwave automated).

Data on two substances can be found in patent publication US20240285784A1 (FUNDACIÓ INSTITUT DE RECERCA BIOMÈDICA (IRB BARCELONA), priority 2020, published 2024).

In turn, “Hexynoic-TTDS-Dap-Lys-Ala-Pro-Glu-Thr-Ala-Leu-Asp-NH2 (hexynoic-TTDS-SEQ ID NO: 7) with a amide bond between Dap side-chain amino group and Asp side-chain carboxilic acid” yielded an isolated yield of 7.5%. “Hexynoic-TTDS-Dap-Lys-Ala-Pro-Glu-Thr-Ala-Leu-Asp-NH2 (hexynoic-TTDS-SEQ ID NO: 14)” gave an isolated yield of 9%.
